From patent publication US6274704A, “Peptides derived from the heparin binding domain of fibronectin” (Hisamitsu Pharmaceutical Co., Inc., priority 1996, dated 2001)
Part of at least one peptide drawing is inferred or uncertain, most often the ends. Peptide text beside a SMILES is read from it.

How the values were obtained:
A375 melanoma cell [1] = assay: Cell adhesion inhibition activity of synthetic peptides (cell suspension includes the peptide); format: cell-based; details: adhesion to fibronectin-coated plate, 60 minutes, 0.2% DMSO
Protocol: The above synthetic peptides were used in this experiment after being dissolved in dimethyl sulfoxide (DMSO: Wako Jyunyaku Co.). To adjust a condition of each experiment to the same, DMSO was added into phosphate buffers containing urea-non-treated Hep 2 fragment, urea-treated Hep 2 fragment, GRGDSP peptide and phosphate buffer itself as a control, respectively. The concentration of DMSO of each experiment was adjusted to 0.2% of final concentration. Inhibition activity against cell adhesion was evaluated according to the method of Fukai et al. (Biochem. Biophys. Res. Commun., 220, 394-398, 1996). In other words, the inhibition activity against cell adhesion of A375 melanoma cell to a plate was measured under the condition with or without the above various synthetic peptides. A375 melanoma cell (American Type Culture Collection: ATCC) was suspended in Dulbecco's modified eagle medium (DMEM: Gibuco Co.) including 0.1% Ovalbumin (Wako Jyunyaku Co.) to be a concentration of 2×10^5 cells/ml. Before preparing cell suspension, a plate was coated with fibronectin according to the method of Miekka et al. Specifically, phosphate buffer containing 10 μg/ml of fibronectin (FN) was prepared and 100 μl of the resultant phosphate buffer containing fibronectin was added into each well of a 96-well plate and then the plate was incubated at 37° C., 5% CO2 concentration for 60 minutes before being washed with phosphate buffer three times. Fibronectin (FN) was purified according to the method of Miekka et al. (Thromb. Res., 27, 1-14, 1982). One hundred (100) μl of the above cell suspension was added into each well of the plate and the plate was incubated at 37° C., 5% CO2 concentration for 60 minutes (Control was without any synthetic peptide). After fixing cells in each well with 5% of formaldehyde (Wako Jyunyaku Co.), non adhesion cells were removed and calls in five areas selected at random in each well were counted by the use of a microscope.
The addition of Hep 2 fragment and each peptide was carried out by the step in which a solution containing Hep 2 fragment or each peptides dissolved with high concentration was added to the cell suspension to obtain the final concentration of Hep 2 fragment or each peptides shown in Table 1.

A375 melanoma cell [2] = assay: Cell adhesion inhibition activity (plate coated with fibronectin solution containing KLH modified synthetic peptide); format: cell-based; details: Experiment 2, KLH modified peptides coated with fibronectin, FIG. 3
Protocol: The above various KLH modified synthetic peptides were added to a solution containing fibronectin to obtain a given concentration, then the procedure of Experiment 1 were repeated with the exception that the resultant solution were added into 96-well plate to coat it. The experiment without any synthetic peptide is a control (the concentration of a peptide was 0 μg/m 1).

SMILES: N=C(N)NCCC[C@H](NC(=O)CN)C(=O)NCC(=O)N[C@@H](CC(=O)O)C(=O)N[C@@H](CO)C(=O)N1CCC[C@H]1C(=O)O [GRGDSP]
- Cell adhesion inhibition activity (A375 melanoma cell [1]; Concentration 200 μg/ml): 35%

SMILES: CC[C@H](C)[C@H](NC(=O)[C@@H](NC(=O)[C@H](Cc1ccc(O)cc1)NC(=O)[C@@H](NC(=O)[C@@H](NC(=O)[C@H](Cc1ccc(O)cc1)NC(=O)[C@H](CCC(=O)O)NC(=O)[C@@H](NC(=O)CNC(=O)[C@@H]1CCCN1C(=O)[C@H](CCC(=O)O)NC(=O)[C@H](CC(C)C)NC(=O)CNC(=O)[C@@H](NC(=O)[C@@H](NC(=O)[C@@H](NC(=O)[C@H](C)NC(=O)[C@H](CCC(=O)O)NC(=O)[C@@H](N)[C@@H](C)O)[C@@H](C)O)[C@@H](C)CC)[C@@H](C)O)[C@@H](C)O)[C@@H](C)O)[C@@H](C)CC)C(C)C)C(=O)N[C@@H](C)C(=O)N[C@@H](CC(C)C)C(=O)O [III 14-2] (H-TEATITGLEPGTEYTIYVIAL-OH)
- Cell adhesion inhibition activity (A375 melanoma cell [1]; Concentration 2 μg/ml): 20%
- Cell adhesion inhibition activity (A375 melanoma cell [1]; Concentration 20 μg/ml): 44%
- Cell adhesion inhibition activity (A375 melanoma cell [1]; Concentration 200 μg/ml): 71%
- cell adhesion inhibition activity (in words) (A375 melanoma cell [2]): strong cell adhesion inhibition activity
